Some results were stated once for a whole list of compounds, not compound by compound.
Legend:
Type in all cases: in vivo
[1] = tested on: Common Cutworm (Spodoptera litura); assay: Insecticidal test for common cutworm (cabbage leaf dip); settings: 1000 ppm; cabbage leaf immersed 30 seconds; 2nd-instar larvae; 25° C.; three days after
[2] = tested on: Diamondback Moth (Plutella xylostella); assay: Insecticidal test for diamondback moth (cabbage leaf dip); settings: 1000 ppm; cabbage leaf immersed 30 seconds; 2nd-instar larvae; 25° C.; three days after
[3] = tested on: Small Brown Planthopper (Laodelphax striatellus); assay: Insecticidal test for small brown planthopper (rice seedling spray); settings: 1000 ppm; acetone solution sprayed on rice seedlings; 25° C.; ten insects

Structure (SMILES)	mortality [1]	mortality [2]	mortality [3]
CCCc1cc(C(F)(C(F)(F)F)C(F)(F)F)cc(Br)c1NC(=O)c1cccc(NC(=O)OCC(Cl)(Cl)Cl)c1 [compound 209]	≥ 70%	≥ 70%	≥ 70%
Cc1cc(C(F)(C(F)(F)F)C(F)(F)F)cc(C)c1NC(=O)c1cccc(N(C)C(=O)OCC(Cl)(Cl)Cl)c1 [Compound No. 1958, N-(2,6-dimethyl-4-heptafluoroisopropyl)phenyl 3-[N′-methyl-N′-(2,2,2-trichloroethoxycarbonyl)amino]benzamide]	≥ 70%	≥ 70%	≥ 70%
Cc1cc(C(F)(C(F)(F)F)C(F)(F)F)cc(I)c1NC(=O)c1cccc(NC(=O)OCC(Cl)(Cl)Cl)c1 [compound 1321]	≥ 70%	≥ 70%	≥ 70%
Cc1cc(C(F)(C(F)(F)F)C(F)(F)F)c(C)c(Cl)c1NC(=O)c1cccc(NC(=O)OC(C)C)c1 [compound 184]	≥ 70%	≥ 70%	≥ 70%
Cc1cc(C(F)(C(F)(F)F)C(F)(F)F)cc(C)c1NC(=O)c1cccc(N(C)C(=O)OCC(Cl)(Cl)Cl)c1F [compound 1959]	≥ 70%	≥ 70%	≥ 70%
Cc1cc(C(F)(C(F)(F)F)C(F)(F)F)c(C)c(Cl)c1NC(=O)c1cccc(NC(=O)OCC(Cl)(Cl)Cl)c1 [compound 215]	≥ 70%	≥ 70%	≥ 70%
CCCc1cc(C(F)(C(F)(F)F)C(F)(F)F)cc(I)c1NC(=O)c1cccc(NC(=O)OCCC(F)(F)F)c1 [compound 1361]	≥ 70%	≥ 70%	≥ 70%
Cc1cc(C(F)(C(F)(F)F)C(F)(F)C(F)(F)F)cc(C)c1NC(=O)c1cccc(NC(=O)OC(CF)CF)c1F (centres unmarked) [compound 1455]	≥ 70%	≥ 70%	≥ 70%
CSc1cc(C(F)(C(F)(F)F)C(F)(F)F)cc(Br)c1NC(=O)c1cccc(NC(=O)OCC(Cl)(Cl)Cl)c1 [compound 212]	≥ 70%	≥ 70%	≥ 70%
Cc1cc(C(F)(C(F)(F)F)C(F)(F)C(F)(F)F)cc(C)c1NC(=O)c1cccc(NC(=O)OCCC(F)(F)F)c1F (centres unmarked) [compound 1458]	≥ 70%	≥ 70%	≥ 70%
Cc1cc(C(F)(C(F)(F)F)C(F)(F)F)cc(C)c1NC(=O)c1cccc(NC(=O)OC2CC(F)(F)C2(F)F)c1 (centres unmarked) [compound 127]	≥ 70%	≥ 70%	≥ 70%
CCc1cc(C(F)(C(F)(F)F)C(F)(F)F)cc(CC)c1NC(=O)c1cccc(NC(=O)OCC(Cl)(Cl)Cl)c1 [Compound No. 196]	≥ 70%	≥ 70%	≥ 70%
Cc1cc(C(F)(C(F)(F)F)C(F)(F)F)cc(C)c1NC(=O)c1cccc(NC(=O)OC(CF)CF)c1F [compound 1408]	≥ 70%	≥ 70%	≥ 70%
CCCc1cc(C(F)(C(F)(F)F)C(F)(F)F)cc(I)c1NC(=O)c1cccc(NC(=O)OCC(Cl)(Cl)Cl)c1 [compound 1368]	≥ 70%	≥ 70%	≥ 70%
CCc1cc(C(F)(C(F)(F)F)C(F)(F)F)cc(Cl)c1NC(=O)c1cccc(NC(=O)OCC(Cl)(Cl)Cl)c1 [compound 205]	≥ 70%	≥ 70%	≥ 70%
CCc1cc(C(F)(C(F)(F)F)C(F)(F)F)cc(C)c1NC(=O)c1cccc(NC(=O)OCC(Cl)(Cl)Cl)c1 [compound 197]	≥ 70%	≥ 70%	≥ 70%
Cc1cc(C(F)(C(F)(F)F)C(F)(F)F)cc(C)c1NC(=O)c1cccc(NC(=O)OCCC(F)(F)F)c1F [compound 1411]	≥ 70%	≥ 70%	≥ 70%

Structure (SMILES)	mortality [1]	mortality [2]	mortality [3]
Cc1cc(C(F)(C(F)(F)F)C(F)(F)F)cc(Br)c1NC(=O)c1cccc(NC(=O)OC(C)C)c1 [compound 1245]	≥ 70%	≥ 70%	–
Cc1cc(SC(F)(F)C(F)(F)C(F)(F)F)cc(C)c1NC(=O)c1cccc(NC(=O)OCC(Cl)(Cl)Cl)c1 [compound 800]	≥ 70%	≥ 70%	–
CCC(C)c1cc(C(F)(C(F)(F)F)C(F)(F)F)cc(Br)c1NC(=O)c1cccc(NC(=O)OCCC(F)(F)F)c1 (centres unmarked) [compound 819]	≥ 70%	≥ 70%	–
Cc1cc(C(F)(F)C(F)(F)C(F)(F)F)cc(C)c1NC(=O)c1cccc(NC(=O)OCC(Cl)(Cl)Cl)c1 [compound 233]	≥ 70%	≥ 70%	–
Cc1cc(C(F)(C(F)(F)F)C(F)(F)F)cc(C)c1NC(=O)c1ccc(F)c(NC(=O)OCC(Cl)(Cl)Cl)c1F [compound 1907]	≥ 70%	≥ 70%	–
CSCCOC(=O)Nc1cccc(C(=O)Nc2c(C)cc(C(F)(C(F)(F)F)C(F)(F)F)cc2C)c1 [compound 108]	≥ 70%	≥ 70%	≥ 70%
Cc1cc(C(F)(C(F)(F)F)C(F)(F)C(F)(F)F)cc(C)c1NC(=O)c1cccc(NC(=O)OCCC(F)(F)F)c1 (centres unmarked) [compound 259]	≥ 70%	≥ 70%	–
Cc1cc(C(F)(C(F)(F)F)C(F)(F)F)ccc1NC(=O)c1cc(NC(=O)OCC(Cl)(Cl)Cl)ccc1C [compound 1931]	≥ 70%	≥ 70%	–
O=C(Nc1cccc(C(=O)Nc2c(Br)cc(SC(F)(C(F)(F)F)C(F)(F)F)cc2Br)c1)OCC(Cl)(Cl)Cl [compound 659]	≥ 70%	≥ 70%	–
Cc1cc(C(F)(C(F)(F)F)C(F)(F)F)cc(C)c1NC(=O)c1cccc(NC(=O)OCCI)c1 [compound 140]	≥ 70%	≥ 70%	–
Cc1cc(C(F)(C(F)(F)F)C(F)(F)F)cc(C)c1NC(=O)c1cccc(NC(=O)OCCCl)c1F [compound 1416]	≥ 70%	≥ 70%	≥ 70%
CCOC(=O)Nc1cccc(C(=O)Nc2c(C)cc(C(F)(C(F)(F)F)C(F)(F)C(F)(F)F)cc2C)c1F (centres unmarked) [compound 1435]	≥ 70%	≥ 70%	≥ 70%
Cc1cc(C(F)(C(F)(F)F)C(F)(F)F)cc(C)c1NC(=S)c1cccc(NC(=O)OCC(Cl)(Cl)Cl)c1 [Compound No. 1964, N-(2,6-dimethyl-4-heptafluoroisopropyl)phenyl 3-(2,2,2-trichloroethoxycarbonylamino)benzthioamide]	≥ 70%	≥ 70%	–
O=C(Nc1cccc(C(=O)Nc2c(Cl)cc(C(F)(C(F)(F)F)C(F)(F)F)cc2Cl)c1)OCC(Cl)(Cl)Cl [compound 213]	≥ 70%	≥ 70%	–
Cc1cc(C(F)(C(F)(F)F)C(F)(F)F)cc(C)c1NC(=O)c1cccc(NC(=O)OC(CF)CF)c1 [compound 119]	≥ 70%	≥ 70%	–
Cc1cc(C(F)(C(F)(F)F)C(F)(F)F)cc(C)c1NC(=O)c1cccc(NC(=O)OCc2ccc([N+](=O)[O-])cc2)c1 [compound 92]	≥ 70%	≥ 70%	–
